# Reference: PubChem BioAssay AID1347423 (Functional Genomics Laboratory (NCATS/FGL), 2020)
# About 210 (0.4%) of roughly 52,000 sequences were called active.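 How the source made its calls: active means gene whose silencing raises cell survival under the drug, median off-target-corrected z-score across its silencing RNAs 2 or more; inactive means the rest.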 The list shows a part of the results.
# Test: Resistance to Poly (ADP-Ribose) Polymerase inhibitor: Gene Identification via Genome-wide siRNA Screen
# Settings: mouse BRCA2 R2336H ES cells, olaparib, CellTiter-Glo viability; active compounds read high
# Procedure, shortened: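 Genome-wide siRNA screen (3 siRNAs/gene, 20 nM) in mouse ES cells carrying hypomorphic BRCA2 R2336H; olaparib 500 nM added 48 h post-transfection, CellTiter-Glo viability 72 h later. Normalized to plate-median negative control; MAD z-scores, gene median, seed-adjusted.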
row,Sequence,z-score
1,GCUGUCGAUAGAAAAAAUCTT against Scml2,inactive: 0.164
2,GACUUCUUCCUUUGCUAACTT against Cd1d2,inactive: 0.857
3,GGACUGCUACUUUUAUUUUTT against Serpinb9e,inactive: 0.0745
4,GGGCAGUCUGAUAGAGGAUTT against Adam30,inactive: -1.06
5,GGAAUAGGUUGGAUCACAATT against 1110018J18Rik,inactive: 0.795
6,CGUGGAACCUGAAUAAUGATT against Aipl1,inactive: 2.04
7,GGAUGAUCCAAGCAAUUGATT against Adcy2,inactive: -1.6
8,GGACUCUCCCAAGUGCAAUTT against Pla2g10,inactive: 1.05
9,CCCAUACAAAGCACUUACATT against Otub1,inactive: 0.382
10,GGAGGGCAGAUCUACGAUGTT against Aars,inactive: -0.0519
11,GGAUGCUUAUGAGGAAAUATT against 1700019D03Rik,inactive: 0.00975
12,GCAUAAGCCACACCCUCUGTT against Cops7a,inactive: -1.18
13,GGGACUUGUUGGAUGAAACTT against Hemt1,inactive: 0.109
14,CCUACCACAUGGAUGAGUATT against 2610203E10Rik,inactive: 0.642
15,GGUGACUUUCUUUAAUCAGTT against Nt5c,inactive: 0.39
16,GGAAGAGCUGAGAUUCGCCTT against Atf3,inactive: 0.788
17,GGAACUAUGCCUCUCGUAUTT against Th,inactive: -0.523
18,GGGAAUGACUCCACAUUGCTT against Limd1,inactive: -1.54
19,CCCUCUAAAGCAUGAGUGUTT against Phemx,inactive: -0.528
20,GACGGACUGUCCUCUAACGTT against Baalc,inactive: 1.17
21,GCCAAAUGUGCGUCAUCUATT against Zdhhc25,inactive: 1.21
22,CCCUGACCGAAACCCUCGCTT against LOC547349,inactive: 0.629
23,GGACAUCUGGCUAAGGAACTT against 1110051B16Rik,inactive: -0.717

row,Sequence,z-score
1,GGGCUGUACUAAAAACUAATT against Olfr93,inactive: -1.01
2,CGUGCUUUCAUGUUCCCUATT against 1700018O18Rik,inactive: -0.187
3,GCUAGCUGUUGUAAAAGAATT against LOC225594,inactive: -0.799
4,GGAGAGAUGGUGGAUUAUATT against Col13a1,inactive: -0.0479
5,GGAAACAACCAUCGAGGUUTT against Cyp4x1,inactive: -1.39
6,CCGGUUUAACUUCAUCAUGTT against Wdr21,inactive: 0.15
7,GGAAGUGUCUUAGCACCCATT against Zfp330,inactive: 1.11
8,CCUGGUCAAUCGAUUCAUATT against 5330416C01Rik,inactive: -0.336
9,GCCUCUCCUAUCCCAAUUATT against Enpp6,inactive: 3.15
10,GCCUCCUAUCCUGGGAAGATT against Prss3,inactive: -1.14
11,GGUACAAUCUUAUCUGUGGTT against Dsg1a,inactive: -2.54
12,GGCUUUUGGUCUGAGAUGCTT against D11Moh34,inactive: -1.44
13,GGUCAUCGGACAUUAUUUATT against Slc4a10,inactive: -0.0901
14,AGUACACUUGCUCCUUCUGTT against Rpl37a,inactive: -2.55
15,GGUCCAUUAUGACGGCAAATT against Zfp533,inactive: -1.22
16,GGACCAAUGCACAGAAGUATT against 1200003C05Rik,inactive: 1.37
17,GGUGCCCAUGCUUGUAGGATT against 8030411F24Rik,inactive: 0.836
18,CCUUGGAUGUAUUCAUAUATT against Prkar2a,inactive: -0.376
19,GGUGACGAAACUCCUAAAATT against Hars,inactive: 0.275
20,GGAGACAGAAAAGAAGUUGTT against Gpr108,inactive: -0.46
21,GGAGAUUGGAAAAACCAAATT against Zfp74,inactive: -1.35
22,GCACUUUCCUUUAUUGUGUTT against 5730593F17Rik,inactive: 1.2
23,GGCGAAUCUUUCCAACGCGTT against Marco,inactive: 0.301

row,Sequence,z-score
1,GGCGGAACAAGAUGACUCATT against Arnt2,inactive: 1.41
2,GCUUUACGUCAGGAGAUAATT against Pak3,inactive: -0.838
3,GGUGCAGUUGAUGAUGAUUTT against AV312086,inactive: -2.77
4,GGCACAGACGGAUCAACAGTT against Clcn3,inactive: -2.27
5,GCUCUACCUUCGCUGGAAATT against Slc7a6,inactive: 0.523
6,GGUUGUUAGAGAUUUGACCTT against Kctd12,inactive: -1.14
7,CCUCCUUACAAGUUGAAGCTT against 5330410G16Rik,inactive: 0.6
8,CGCAACAGCAAAUCAUCAGTT against Ap3s1,inactive: -0.0694
9,GGAAAUACGGCAGAACCCUTT against Kcnk9,inactive: 0.143
10,GGGAAAAGCACGUUCUUGCTT against Arl10a,inactive: -1.66
11,GGAUUAUGGGAGAUAUAAATT against Hapln1,inactive: 0.11
12,GGUACUUCACAAUGGACAGTT against Zcchc9,inactive: -1.25
13,GGAGCAUCCUGUUCUUCUATT against Actr1b,inactive: -1.63
14,GGAAAUUGGUCCAGUUAUUTT against Magee1,inactive: 1.24
15,GAUGAUCUUUUGGAUGAACTT against 4933402P03Rik,inactive: 0.924
16,GGAAGAGGUUUUAUCAGAATT against Atpaf2,inactive: -0.409
17,GGACUACCGAACAAGAGAATT against Zfp318,inactive: 0.11
18,GGACUAACCAGAAUUUUCATT against Kcnc2,inactive: 0.666
19,GGAAUGUGUAUUCCAAAAUTT against Gp2,inactive: -0.01
20,GGGAGGAUGGUGGUAUAACTT against Angptl2,inactive: -0.242
21,GGAAGAGGAGCAAAAGCCATT against Slc34a1,inactive: 1.78

# Single entries from the results shown:
# z-score, GCUAGCUGUUGUAAAAGAATT against LOC225594 is entered as inactive: -0.799
# z-score, GGUGCCCAUGCUUGUAGGATT against 8030411F24Rik is entered as inactive: 0.836
